PubChem BioAssay AID1053208 – Peter MacCallum Cancer Centre, 2014
In all, the deposit lists about 17,000 reagents; below is an unselected part. 788 of them (4.7%) were called active. 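Calls rest on z-score classes alone; an extra cut-off of viability at most 70% of control was not applied to them.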 Not all columns of the deposit are shown.

- Purpose: 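Synthetic lethal interactions between gene loss and doxorubicin in osteosarcoma cells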 (primary screen)
- System: mouse osteosarcoma cells, early-passage culture from an engineered mouse model of fibroblastic bone tumour
- Knock-down reagent: siRNA pool against mouse genes, 40 nM
- Timing: about 120 h (48 h before drug, then 72 h with drug)
- Conditions: doxorubicin 100 nM for 72 h, roughly 30-40% inhibitory dose
- Measurement: 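Luminescent ATP signal taken as viability with or without 100 nM doxorubicin for 72 h; mean of two wells set against non-targeting siRNA and turned into robust z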
- Direction: viability z-score with doxorubicin: higher = more viable cells under doxorubicin; viability z-score without drug: higher = more viable cells with knock-down alone
- Active means: 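a pool counts as active when its viability z-score with doxorubicin is -2 or below and its z-score without drug lies between -2 and 2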

Tmem161a
- combined z-score class: no change with or without drug
- viability z-score with doxorubicin: -1.12
- viability z-score without drug: -0.51
- activity call: inactive

Zfp101
- combined z-score class: no change with or without drug
- viability z-score with doxorubicin: 1.57
- viability z-score without drug: 1.18
- activity call: inactive

Abhd10
- combined z-score class: no change with or without drug
- viability z-score with doxorubicin: -1.46
- viability z-score without drug: -0.17
- activity call: inactive

Eral1
- combined z-score class: no change with or without drug
- viability z-score with doxorubicin: -0.22
- viability z-score without drug: 0.17
- activity call: inactive

Gm57858
- combined z-score class: no change with or without drug
- viability z-score with doxorubicin: -0.11
- viability z-score without drug: 0.17
- activity call: inactive

Ppbp
- combined z-score class: no change with or without drug
- viability z-score with doxorubicin: -1.24
- viability z-score without drug: -1.18
- activity call: inactive

Glrx3
- combined z-score class: no change with or without drug
- viability z-score with doxorubicin: 1.46
- viability z-score without drug: 0.67
- activity call: inactive

Wdr62
- combined z-score class: no change with or without drug
- viability z-score with doxorubicin: -0.22
- viability z-score without drug: 1.01
- activity call: inactive

Bfar
- combined z-score class: no change with or without drug
- viability z-score with doxorubicin: 1.8
- viability z-score without drug: 0.51
- activity call: inactive

Ldlrad4
- combined z-score class: no change with or without drug
- viability z-score with doxorubicin: -0.11
- viability z-score without drug: 1.52
- activity call: inactive

Hdac4
- combined z-score class: low cell count with doxorubicin only
- viability z-score with doxorubicin: -2.25
- viability z-score without drug: -1.85
- activity call: active

Clec4n
- combined z-score class: no change with or without drug
- viability z-score with doxorubicin: -1.35
- viability z-score without drug: -0.34
- activity call: inactive

Cblif
- combined z-score class: no change with or without drug
- viability z-score with doxorubicin: -0.67
- viability z-score without drug: 0.67
- activity call: inactive

Cog3
- combined z-score class: high cell count without drug only
- viability z-score with doxorubicin: 1.69
- viability z-score without drug: 2.53
- activity call: inactive

Tpp2
- combined z-score class: no change with or without drug
- viability z-score with doxorubicin: 0.11
- viability z-score without drug: 0.84
- activity call: inactive

Plk3
- combined z-score class: no change with or without drug
- viability z-score with doxorubicin: -0.11
- viability z-score without drug: 0.34
- activity call: inactive

Chac2
- combined z-score class: no change with or without drug
- viability z-score with doxorubicin: 0.56
- viability z-score without drug: 0.51
- activity call: inactive

The list goes on (4 carried over from the part before).
Cog3
- combined z-score class: high cell count without drug only
- viability z-score with doxorubicin: 1.69
- viability z-score without drug: 2.53
- activity call: inactive

Tpp2
- combined z-score class: no change with or without drug
- viability z-score with doxorubicin: 0.11
- viability z-score without drug: 0.84
- activity call: inactive

Plk3
- combined z-score class: no change with or without drug
- viability z-score with doxorubicin: -0.11
- viability z-score without drug: 0.34
- activity call: inactive

Chac2
- combined z-score class: no change with or without drug
- viability z-score with doxorubicin: 0.56
- viability z-score without drug: 0.51
- activity call: inactive

Ifna16
- combined z-score class: low cell count with doxorubicin only
- viability z-score with doxorubicin: -2.02
- viability z-score without drug: -0.51
- activity call: active

Mip
- combined z-score class: no change with or without drug
- viability z-score with doxorubicin: -0.56
- viability z-score without drug: 1.18
- activity call: inactive

Sprr2d
- combined z-score class: no change with or without drug
- viability z-score with doxorubicin: 0.9
- viability z-score without drug: -0.34
- activity call: inactive

Ergic3
- combined z-score class: no change with or without drug
- viability z-score with doxorubicin: -0.34
- viability z-score without drug: 0.17
- activity call: inactive

Or8b55
- combined z-score class: no change with or without drug
- viability z-score with doxorubicin: -0.9
- viability z-score without drug: -0.84
- activity call: inactive

Fshb
- combined z-score class: no change with or without drug
- viability z-score with doxorubicin: 0.22
- viability z-score without drug: -0.34
- activity call: inactive

Taf1c
- combined z-score class: no change with or without drug
- viability z-score with doxorubicin: -0.45
- viability z-score without drug: 1.18
- activity call: inactive

Mill1
- combined z-score class: no change with or without drug
- viability z-score with doxorubicin: 1.01
- viability z-score without drug: 0.51
- activity call: inactive

Tnc
- combined z-score class: no change with or without drug
- viability z-score with doxorubicin: -1.24
- viability z-score without drug: -0.17
- activity call: inactive

Ptges
- combined z-score class: no change with or without drug
- viability z-score with doxorubicin: 1.69
- viability z-score without drug: 1.85
- activity call: inactive

Nipal4
- combined z-score class: low cell count with and without drug
- viability z-score with doxorubicin: -3.48
- viability z-score without drug: -2.19
- activity call: inactive
